# According to the supplement of paper PMC12819154, “High-throughput peptide-centric local stability assay extends protein–ligand identification to membrane proteins, tissues and bacteria” (Nature Structural & Molecular Biology, 2025):
# Chains of the proteins cited; added tags and fusions are not shown. Lines headed by an entry give the natural chain unless they say otherwise; changes in a name come on top.
# UniProt Q6NT76: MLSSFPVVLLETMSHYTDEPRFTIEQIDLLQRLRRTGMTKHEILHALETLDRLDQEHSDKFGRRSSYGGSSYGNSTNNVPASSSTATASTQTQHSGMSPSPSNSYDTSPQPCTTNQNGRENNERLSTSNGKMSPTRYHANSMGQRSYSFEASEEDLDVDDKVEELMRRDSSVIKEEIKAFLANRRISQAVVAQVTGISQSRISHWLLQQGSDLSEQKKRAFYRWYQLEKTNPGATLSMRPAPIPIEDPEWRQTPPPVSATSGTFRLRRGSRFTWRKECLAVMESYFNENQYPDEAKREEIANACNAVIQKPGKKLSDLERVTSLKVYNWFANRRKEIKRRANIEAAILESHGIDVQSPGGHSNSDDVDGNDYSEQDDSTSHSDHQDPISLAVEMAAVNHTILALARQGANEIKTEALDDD
# UniProt Q6N069: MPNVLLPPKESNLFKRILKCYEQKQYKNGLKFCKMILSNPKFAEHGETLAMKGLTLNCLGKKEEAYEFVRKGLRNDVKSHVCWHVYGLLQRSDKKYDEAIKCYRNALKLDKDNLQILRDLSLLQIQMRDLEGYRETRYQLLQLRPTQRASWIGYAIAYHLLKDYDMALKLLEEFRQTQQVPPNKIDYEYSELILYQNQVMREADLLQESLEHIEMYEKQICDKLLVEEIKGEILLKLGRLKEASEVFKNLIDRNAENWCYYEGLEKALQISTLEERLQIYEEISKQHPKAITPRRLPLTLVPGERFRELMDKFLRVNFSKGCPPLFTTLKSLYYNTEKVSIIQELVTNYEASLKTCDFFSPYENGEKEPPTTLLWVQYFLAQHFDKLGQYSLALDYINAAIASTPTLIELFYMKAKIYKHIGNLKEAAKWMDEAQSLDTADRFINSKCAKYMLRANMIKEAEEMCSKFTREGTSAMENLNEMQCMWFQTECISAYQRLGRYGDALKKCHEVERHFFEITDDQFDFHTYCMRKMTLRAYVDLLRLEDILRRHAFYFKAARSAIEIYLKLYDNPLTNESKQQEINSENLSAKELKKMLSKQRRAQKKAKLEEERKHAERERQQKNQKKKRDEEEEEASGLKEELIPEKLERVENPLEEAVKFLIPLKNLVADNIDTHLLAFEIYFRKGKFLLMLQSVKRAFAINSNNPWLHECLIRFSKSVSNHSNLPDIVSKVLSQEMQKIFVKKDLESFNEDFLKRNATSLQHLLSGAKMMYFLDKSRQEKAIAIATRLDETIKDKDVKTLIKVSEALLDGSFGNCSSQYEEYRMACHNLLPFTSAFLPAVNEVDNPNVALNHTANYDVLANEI
# UniProt Q6VY07, whole entry, looked up: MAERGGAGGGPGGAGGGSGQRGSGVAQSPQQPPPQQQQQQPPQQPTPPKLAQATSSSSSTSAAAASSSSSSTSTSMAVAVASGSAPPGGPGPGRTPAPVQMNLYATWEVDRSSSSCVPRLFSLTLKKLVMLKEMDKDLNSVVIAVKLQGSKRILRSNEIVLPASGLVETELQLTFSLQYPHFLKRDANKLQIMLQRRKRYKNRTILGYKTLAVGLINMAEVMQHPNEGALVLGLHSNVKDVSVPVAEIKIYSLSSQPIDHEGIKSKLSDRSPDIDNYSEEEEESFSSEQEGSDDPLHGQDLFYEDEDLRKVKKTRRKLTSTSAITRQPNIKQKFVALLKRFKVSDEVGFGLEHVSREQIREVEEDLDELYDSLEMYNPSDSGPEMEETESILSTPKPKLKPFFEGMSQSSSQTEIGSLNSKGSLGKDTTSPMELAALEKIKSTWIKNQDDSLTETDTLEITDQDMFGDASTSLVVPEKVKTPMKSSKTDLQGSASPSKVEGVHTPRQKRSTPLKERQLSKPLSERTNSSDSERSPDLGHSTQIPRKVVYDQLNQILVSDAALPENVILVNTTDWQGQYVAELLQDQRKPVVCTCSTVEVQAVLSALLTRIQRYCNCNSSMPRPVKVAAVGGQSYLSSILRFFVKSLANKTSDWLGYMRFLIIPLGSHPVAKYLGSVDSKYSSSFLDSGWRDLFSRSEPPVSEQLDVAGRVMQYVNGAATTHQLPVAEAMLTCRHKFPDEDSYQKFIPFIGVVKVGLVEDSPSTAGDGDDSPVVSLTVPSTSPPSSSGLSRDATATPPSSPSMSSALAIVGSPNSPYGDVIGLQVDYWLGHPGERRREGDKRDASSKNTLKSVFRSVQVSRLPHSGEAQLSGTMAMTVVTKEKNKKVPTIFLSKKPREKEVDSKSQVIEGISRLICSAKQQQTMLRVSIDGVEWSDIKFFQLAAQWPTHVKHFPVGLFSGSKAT
# UniProt Q6PJG6: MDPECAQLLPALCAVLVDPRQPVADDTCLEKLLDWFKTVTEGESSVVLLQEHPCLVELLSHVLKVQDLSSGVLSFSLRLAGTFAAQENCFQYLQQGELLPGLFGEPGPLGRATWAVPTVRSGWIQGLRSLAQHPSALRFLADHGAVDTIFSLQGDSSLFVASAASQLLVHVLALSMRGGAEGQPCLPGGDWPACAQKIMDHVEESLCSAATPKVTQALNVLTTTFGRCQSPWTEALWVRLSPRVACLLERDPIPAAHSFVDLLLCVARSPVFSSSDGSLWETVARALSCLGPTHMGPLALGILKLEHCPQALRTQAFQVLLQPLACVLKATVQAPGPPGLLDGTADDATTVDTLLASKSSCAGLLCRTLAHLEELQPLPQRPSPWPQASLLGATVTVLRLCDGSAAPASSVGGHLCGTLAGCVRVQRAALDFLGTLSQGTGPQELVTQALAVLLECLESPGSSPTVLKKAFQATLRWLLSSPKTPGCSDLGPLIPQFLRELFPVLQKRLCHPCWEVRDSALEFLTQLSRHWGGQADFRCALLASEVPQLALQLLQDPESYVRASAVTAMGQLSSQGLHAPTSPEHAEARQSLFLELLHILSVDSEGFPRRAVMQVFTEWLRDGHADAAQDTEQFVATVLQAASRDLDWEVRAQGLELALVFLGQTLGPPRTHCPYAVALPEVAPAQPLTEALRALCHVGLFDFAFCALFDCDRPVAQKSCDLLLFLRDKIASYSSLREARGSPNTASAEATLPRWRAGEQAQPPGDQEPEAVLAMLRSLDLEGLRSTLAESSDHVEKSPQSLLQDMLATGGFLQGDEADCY
# UniProt Q6P4F7: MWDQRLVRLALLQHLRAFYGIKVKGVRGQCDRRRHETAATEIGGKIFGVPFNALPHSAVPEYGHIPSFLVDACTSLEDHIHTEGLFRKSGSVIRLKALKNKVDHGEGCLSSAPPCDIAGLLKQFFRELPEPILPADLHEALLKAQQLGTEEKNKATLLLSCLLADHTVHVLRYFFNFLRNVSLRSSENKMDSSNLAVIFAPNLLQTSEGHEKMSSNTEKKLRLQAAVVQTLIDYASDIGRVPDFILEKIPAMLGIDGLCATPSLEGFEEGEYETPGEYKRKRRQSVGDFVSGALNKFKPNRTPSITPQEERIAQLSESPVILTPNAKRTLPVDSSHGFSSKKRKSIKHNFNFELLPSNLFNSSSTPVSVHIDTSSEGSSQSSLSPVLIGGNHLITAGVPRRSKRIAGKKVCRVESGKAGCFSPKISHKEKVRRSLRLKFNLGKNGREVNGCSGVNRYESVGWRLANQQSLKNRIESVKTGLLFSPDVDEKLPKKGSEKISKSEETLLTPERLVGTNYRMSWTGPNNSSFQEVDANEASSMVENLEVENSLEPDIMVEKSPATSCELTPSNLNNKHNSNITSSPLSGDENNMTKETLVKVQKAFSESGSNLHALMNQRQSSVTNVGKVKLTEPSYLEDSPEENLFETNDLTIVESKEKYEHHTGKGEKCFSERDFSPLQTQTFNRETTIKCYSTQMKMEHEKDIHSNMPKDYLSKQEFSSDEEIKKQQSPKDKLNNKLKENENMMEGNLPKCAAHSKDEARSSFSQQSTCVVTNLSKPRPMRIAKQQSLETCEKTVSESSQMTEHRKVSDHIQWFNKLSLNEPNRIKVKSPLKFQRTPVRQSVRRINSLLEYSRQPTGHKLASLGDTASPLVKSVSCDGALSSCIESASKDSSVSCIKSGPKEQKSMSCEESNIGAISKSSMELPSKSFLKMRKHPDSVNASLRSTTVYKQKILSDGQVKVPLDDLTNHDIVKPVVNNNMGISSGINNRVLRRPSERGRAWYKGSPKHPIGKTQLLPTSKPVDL
# UniProt Q6PJP8: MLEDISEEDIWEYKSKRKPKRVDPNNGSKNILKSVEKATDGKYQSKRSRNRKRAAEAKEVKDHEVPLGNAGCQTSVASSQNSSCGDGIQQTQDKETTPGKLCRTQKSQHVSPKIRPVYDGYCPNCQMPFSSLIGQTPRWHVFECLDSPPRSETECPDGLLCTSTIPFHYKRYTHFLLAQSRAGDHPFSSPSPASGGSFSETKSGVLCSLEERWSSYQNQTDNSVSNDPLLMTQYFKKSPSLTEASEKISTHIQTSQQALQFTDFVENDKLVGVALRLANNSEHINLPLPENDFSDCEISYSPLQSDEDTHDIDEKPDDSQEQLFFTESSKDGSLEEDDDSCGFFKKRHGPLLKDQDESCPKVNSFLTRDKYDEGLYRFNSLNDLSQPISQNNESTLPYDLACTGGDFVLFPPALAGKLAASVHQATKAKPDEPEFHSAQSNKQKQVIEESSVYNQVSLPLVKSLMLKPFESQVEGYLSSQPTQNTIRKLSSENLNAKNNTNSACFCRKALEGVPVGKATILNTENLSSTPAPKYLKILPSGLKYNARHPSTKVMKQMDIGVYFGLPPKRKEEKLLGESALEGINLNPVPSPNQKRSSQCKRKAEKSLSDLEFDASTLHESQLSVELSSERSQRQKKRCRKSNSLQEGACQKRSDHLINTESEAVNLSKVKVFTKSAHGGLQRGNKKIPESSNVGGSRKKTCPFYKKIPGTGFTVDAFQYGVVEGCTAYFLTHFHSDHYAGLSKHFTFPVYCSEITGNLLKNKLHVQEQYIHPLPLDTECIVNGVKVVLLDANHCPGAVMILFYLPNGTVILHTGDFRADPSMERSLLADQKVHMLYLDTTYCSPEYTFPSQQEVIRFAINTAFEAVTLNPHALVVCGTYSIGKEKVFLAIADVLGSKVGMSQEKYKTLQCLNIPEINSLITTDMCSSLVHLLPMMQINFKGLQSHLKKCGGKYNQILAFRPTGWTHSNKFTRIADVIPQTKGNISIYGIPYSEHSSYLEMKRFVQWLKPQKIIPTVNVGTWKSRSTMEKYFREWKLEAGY
# UniProt Q5XUX0: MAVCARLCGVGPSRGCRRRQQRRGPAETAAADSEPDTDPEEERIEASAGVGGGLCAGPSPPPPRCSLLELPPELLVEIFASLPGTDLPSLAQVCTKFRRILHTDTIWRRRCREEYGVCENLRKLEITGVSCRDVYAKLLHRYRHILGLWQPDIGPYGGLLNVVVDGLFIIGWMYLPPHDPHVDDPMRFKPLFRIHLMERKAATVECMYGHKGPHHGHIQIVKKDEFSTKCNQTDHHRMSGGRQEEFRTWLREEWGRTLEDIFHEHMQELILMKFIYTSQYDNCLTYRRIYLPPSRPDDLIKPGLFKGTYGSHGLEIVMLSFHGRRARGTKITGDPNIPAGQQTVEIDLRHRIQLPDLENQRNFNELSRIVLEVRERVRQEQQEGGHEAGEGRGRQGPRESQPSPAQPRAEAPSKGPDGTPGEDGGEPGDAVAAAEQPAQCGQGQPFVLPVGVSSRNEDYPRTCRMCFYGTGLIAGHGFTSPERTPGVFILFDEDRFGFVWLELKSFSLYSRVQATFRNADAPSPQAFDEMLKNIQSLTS
# UniProt Q6NTE8: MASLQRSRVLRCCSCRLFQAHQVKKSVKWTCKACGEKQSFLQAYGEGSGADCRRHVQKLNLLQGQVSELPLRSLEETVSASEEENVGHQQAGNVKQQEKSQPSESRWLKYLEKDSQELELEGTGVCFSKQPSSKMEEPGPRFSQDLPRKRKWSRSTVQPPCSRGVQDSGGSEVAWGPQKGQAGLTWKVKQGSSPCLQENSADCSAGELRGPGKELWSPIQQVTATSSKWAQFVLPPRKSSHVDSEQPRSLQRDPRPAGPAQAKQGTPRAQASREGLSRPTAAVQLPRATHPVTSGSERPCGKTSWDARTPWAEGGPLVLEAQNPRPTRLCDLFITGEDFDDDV
# UniProt Q6AZZ1: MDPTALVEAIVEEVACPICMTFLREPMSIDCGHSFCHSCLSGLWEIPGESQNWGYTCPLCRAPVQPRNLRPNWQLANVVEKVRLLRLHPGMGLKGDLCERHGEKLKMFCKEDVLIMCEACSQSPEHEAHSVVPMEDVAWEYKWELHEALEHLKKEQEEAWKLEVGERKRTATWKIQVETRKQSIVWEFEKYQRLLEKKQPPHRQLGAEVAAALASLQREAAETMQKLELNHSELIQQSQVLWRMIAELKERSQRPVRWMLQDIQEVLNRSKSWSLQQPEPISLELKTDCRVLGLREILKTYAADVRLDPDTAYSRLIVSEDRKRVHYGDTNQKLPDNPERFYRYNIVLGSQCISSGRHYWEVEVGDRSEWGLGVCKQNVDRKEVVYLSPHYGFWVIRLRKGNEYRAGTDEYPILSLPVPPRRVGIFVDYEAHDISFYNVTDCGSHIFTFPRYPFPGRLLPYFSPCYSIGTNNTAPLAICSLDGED
# This is one part of the list. Most values lie at the level of the controls, where differences are scatter.
# Compound: CN[C@@H]1C[C@H]2O[C@@](C)([C@@H]1OC)n1c3ccccc3c3c4c(c5c6ccccc6n2c5c31)C(=O)NC4 [staurosporine]
# Experiment: log2 fold change of tryptic peptide abundance, ligand vs vehicle (limited proteolysis) (log2 ratio); higher = more trypsin-susceptible (destabilized)
# Details: ligand concentration: 20 uM; sample: K562 cleared lysate; digestion: 4 min, 22 C (HT-PELSA RT4min, Orbitrap Astral)
row,Target,log2 fold change
1,"THADA (peptide sequence: DLNASVVNIDTSTEIK, peptide start residue: 1020) (UniProt Q6YHU6)",-0.477
2,"ZNF280D (peptide sequence: LIMLVNDFYYGKHEGDVQEEQK, peptide start residue: 295) (UniProt Q6N043)",0.483
3,"HMBOX1 (peptide sequence: YHANSMGQR, peptide start residue: 137) (UniProt Q6NT76)",0.364
4,"UniProt Q6N069 (peptide sequence: ALQISTLEER, peptide start residue: 267)",-0.401
5,"FAHD2B (peptide sequence: VVCVGMNYVDHCK, peptide start residue: 108) (UniProt Q6P2I3)",1.12
6,"ALKBH5 (peptide sequence: ILEMDKEENRR, peptide start residue: 339) (UniProt Q6P6C2)",-0.201
7,"MAP1S (peptide sequence: AVPMAPAPASPGSSNDSSAR, peptide start residue: 750) (UniProt Q66K74)",-0.33
8,"ADNP2 (peptide sequence: TKPYCCGLCK, peptide start residue: 70) (UniProt Q6IQ32)",0.183
9,"UniProt Q6P1J9 (peptide sequence: QPIPAAYNR, peptide start residue: 284)",-0.274
10,"FBXO38 (peptide sequence: LSHVLLVSESEVAK, peptide start residue: 875) (UniProt Q6PIJ6)",0.166
11,"PACS1 (peptide sequence: TNSSDSERSPDLGHSTQIPR, peptide start residue: 526) (UniProt Q6VY07)",1.01
12,"UniProt Q6PJG6 (peptide sequence: SCDLLLFLR, peptide start residue: 719)",-0.114
13,"OGFOD2 (peptide sequence: NSLCPMCCR, peptide start residue: 314) (UniProt Q6N063)",0.126
14,"ARHGAP11A (peptide sequence: EVNGCSGVNR, peptide start residue: 447) (UniProt Q6P4F7)",-0.894
15,"CENPP (peptide sequence: RACEDPPAPWEEK, peptide start residue: 20) (UniProt Q6IPU0)",-0.206
16,"UniProt Q6GYQ0 (peptide sequence: EEENGTNTADHVR, peptide start residue: 482)",-1.03
17,"MSANTD2 (peptide sequence: APGPAMYER, peptide start residue: 140) (UniProt Q6P1R3)",-0.111
18,"UniProt Q6PJP8 (peptide sequence: RSDHLINTESEAVNLSK, peptide start residue: 652)",0.667
19,"UniProt Q68D86 (peptide sequence: EILEREK, peptide start residue: 367)",0.0332

row,Target,log2 fold change
1,"RPL7L1 (peptide sequence: IERIDGVSLLVQR, peptide start residue: 102) (UniProt Q6DKI1)",0.182
2,"UniProt Q68DI1 (peptide sequence: EGPYVCSDSGK, peptide start residue: 233)",-0.197
3,"RRAGB (peptide sequence: LAASFQSMEVR, peptide start residue: 245) (UniProt Q5VZM2)",-0.394
4,"CRELD2 (peptide sequence: EHGQCADVDECSLAEKTCVR, peptide start residue: 284) (UniProt Q6UXH1)",-0.797
5,"MRPL14 (peptide sequence: ALIVGHCMPGPR, peptide start residue: 84) (UniProt Q6P1L8)",0.132
6,"UniProt Q6NXR0 (peptide sequence: KKAMLQEQVLK, peptide start residue: 259)",0.617
7,"UniProt Q5XUX0 (peptide sequence: ESQPSPAQPR, peptide start residue: 399)",-0.257
8,"CRTC1 (peptide sequence: QAWDTKK, peptide start residue: 202) (UniProt Q6UUV9)",0.389
9,"SHQ1 (peptide sequence: MMAFLEK, peptide start residue: 226) (UniProt Q6PI26)",-0.146
10,"TTC27 (peptide sequence: IFYCCQVPPHWAIQR, peptide start residue: 430) (UniProt Q6P3X3)",-0.261
11,"MRNIP (peptide sequence: QSFLQAYGEGSGADCRR, peptide start residue: 38) (UniProt Q6NTE8)",-0.832
12,"SLC27A4 (peptide sequence: ILSFVYPIR, peptide start residue: 409) (UniProt Q6P1M0)",-0.231
13,"B3GNTL1 (peptide sequence: SLHLQEGQDFLHFS, peptide start residue: 348) (UniProt Q67FW5)",-0.0472
14,"UniProt Q6YP21 (peptide sequence: KLSAIPVSAFCNSETK, peptide start residue: 406)",0.215
15,"TRIM68 (peptide sequence: NLRPNWQLANVVEK, peptide start residue: 68) (UniProt Q6AZZ1)",0.863
16,"C14ORF106 (peptide sequence: AYILVTPLK, peptide start residue: 648) (UniProt Q6P0N0)",-0.489
17,"WWC2 (peptide sequence: LALALDEYVR, peptide start residue: 125) (UniProt Q6AWC2)",-0.264
18,"UniProt Q6P2P2 (peptide sequence: MGFRDEAAGYFHK, peptide start residue: 114)",-0.192

# Fetched one by one from the entries so far:
row,Target,log2 fold change
4,"CRELD2 (peptide sequence: EHGQCADVDECSLAEKTCVR, peptide start residue: 284) (UniProt Q6UXH1)",-0.797
3,"RRAGB (peptide sequence: LAASFQSMEVR, peptide start residue: 245) (UniProt Q5VZM2)",-0.394
